Measurements taken from patent US8236346B2, “Method for reducing amyloid deposition, amyloid neurotoxicity, and microgliosis with (-)-nilvadipine enantiomer” (Alzheimer's Institute of America, Inc, priority 2007, dated 2012).
At least one compound was matched to its structure with a doubt left.

Tests used:
Type in all cases: cell-based
[1] = test system: human neuronal progenitor cells (HNPC); experiment: Aβ neurotoxicity, LDH release; details: 10 nM nilvadipine with 30 μM AgAβ, three days
Procedure: Cyclic AMP (1 mM) (Sigma) was added to the culture medium and the HNPC cells were incubated at 37° C. for 48 hours or more under serum free conditions. This medium allowed differentiation of the progenitors into cells of neuronal lineage, as was confirmed by the staining of most of the cells with antibodies against the microtubule-associated protein, MAP-2. Neurotoxicity was assessed by measuring the amount of lactic dehydrogenase (LDH; an intracellular enzyme found in all cells) released from the cells.

[2] = test system: N9 murine microglial cells; experiment: LPS-induced microglial activation, TNF-α production by ELISA; details: 500 nM nilvadipine, no LPS, versus 50 nM
Procedure: N9 murine microglial cells are well characterized scavenger murine microglial clones derived from embryonic mouse brain. The extent of microglial activation was determined by TNF-α production (pg/ml) measured by ELISA. […] Microglial cells in the presence of 1 μg/ml LPS produced about 820 pg/ml TNF-α, an […] from the control cells and nilvadipine-administered cells.

[3] = test system: 7W WT APP751 Chinese hamster ovary cells; experiment: Aβ1-40 and Aβ1-42 production by ELISA; details: 24 hours treatment; for effect on Aβ1-42 production: low dose
Procedure: Production of Aβ1-40 and Aβ1-42 in the culture medium was measured by using a commercially available human Aβ1-40 ELISA (Biosource, CA) and commercially available human Aβ1-42 ELISA (Biosource, CA), respectively.

Row | SMILES | change in LDH release [1] | TNF-α production [2] | effect on Aβ1-42 production [3] | effect on Aβ1-40 production ([3]; dose response) | effect on Aβ1-42 production ([3]; listed as (−)-Nilvadipine)
1 | COC(=O)C1=C(C#N)NC(C)=C(C(=O)OC(C)C)C1c1cccc([N+](=O)[O-])c1 (racemic) [nilvadipine, isopropyl-3-methyl-2-cyano-1,4-dihydro-6-methyl-4-(m-nitrophenyl)-3,5-pyridine-dicarboxylate] | no change | did not change | slightly stimulate | – | –
2 | COC(=O)C1=C(C#N)NC(C)=C(C(=O)OC(C)C)[C@@H]1c1cccc([N+](=O)[O-])c1 [(−)-nilvadipine, isopropyl-3-methyl-2-cyano-1,4-dihydro-6-methyl-4-(m-nitrophenyl)-3,5-pyridine-dicarboxylate] | – | – | does not show this effect | dose dependently inhibit | lower and not statistically significant
